Test results taken from paper PMC12548414.
The campaign covered roughly 1,600 compounds. About 20 (1%) showed an effect of 50% or more. The list shows a part of the results.

system: T1, E. coli pLC1021 (luc-trpAt trans-translation reporter); set-up: species or system Escherichia coli pLC1021; luc-trpAt non-stop luciferase reporter; luminescence rises when trans-translation is inhibited; normalized to KKL-35 and DMSO; conditions: reporter signal, KKL-35 = 100%; rise means trans-translation inhibition; 2 h, 20 µM
T1 construct: pLC1021 luc-trpAt reporter strain
Summary of the method: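 Luminescence (560 nm, 10 min after Bright-Glo) reports luciferase that escapes trans-translation tagging, measured after 2 h room-temperature treatment with 20 µM compound. Each plate was scaled between DMSO (negative) and 20 µM KKL-35 (positive) controls. Compounds scoring one standard deviation above the median counted as positive; at least two biological repeats.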

| SMILES | % activation [%] |
| --- | --- |
| Cc1cc(NC(=O)CSc2nnnn2-c2ccccc2C)no1 [KKL-0567] | 0 |
| Cc1ccc(-n2cc(-c3ccccc3)c3c(NCc4cccnc4)ncnc32)cc1 [KKL-1567] | 0 |
| CCCC(=O)N1CCN(c2ccc(NC(=O)c3ccc([N+](=O)[O-])o3)cc2Cl)CC1 [KKL-1635] | 0 |
| COC(=O)COc1cccc(NC(=O)COc2ccccc2)c1 [KKL-0968] | 0 |
| CCOc1ccccc1C1c2[nH]c3ccccc3c2CCN1Cc1cc2ccccc2nc1O (stereo not drawn) [KKL-0655] | 9 |
| COc1cccc(NC(=O)CSc2nnc(-c3ccc(Br)cc3)o2)c1 [KKL-1288] | 6 |
| Cc1c(-c2ccccc2)n[nH]c1C(=O)NCCCc1ccc(F)cc1 [KKL-0685] | 0 |
| O=C(Oc1cccc2cccnc12)c1ccc(S(=O)(=O)N2CCCCC2)cc1 [KKL-0609] | 0 |
| CCCC(NC(=O)c1cnc(SC)nc1)c1cccs1 (stereo not drawn) [KKL-0695] | 2 |
| COc1cccc(/C=C2\Sc3ccc(C(=O)NCc4cccnc4)cc3N(C)C2=O)c1 [KKL-1127] | 0 |
| COc1cccc(OC)c1C(=O)Nc1ccc(Cl)c(-c2nc3ccccc3s2)c1 [KKL-1559] | 0 |
| Cc1c(CN2CCC(O)(c3ccc(F)cc3)CC2)[nH]c2ccc(F)cc12 [KKL-0937] | 0 |
| O=C(Nc1nc(-c2ccccn2)cs1)c1cc(Cl)ccc1[N+](=O)[O-] [KKL-0799] | 16 |
| Cc1nc(N2CCN(Cc3ccc4c(c3)OCO4)CC2)c2cc(-c3ccccc3)sc2n1 [KKL-1242] | 9 |
| Cc1cccc(Nc2nnc(SCC(=O)Nc3cccnc3Cl)s2)c1 [KKL-0387] | 0 |
| O=C(CC(O)(C(F)(F)F)C(F)(F)F)Nc1cccc(C(F)(F)F)c1 [KKL-0396] | 28 |
| Cc1cc(C)nc(/N=C(\N)Nc2cc(Cl)ccc2Oc2ccccc2)n1 [KKL-0289] | 0 |
| CSc1ncc(C(=O)NC(c2cccs2)C(C)C)cn1 (stereo not drawn) [KKL-0686] | 0 |
| CCOC(=O)COc1ccc2ccccc2c1/C=C/[N+](=O)[O-] [KKL-1518] | 0 |
| COC(=O)[C@@H]1Cc2c([nH]c3ccccc23)[C@H]2C[C@@H](N3CC[C@@H](O)C3)C[C@@H](c3ccc(C(F)(F)F)cc3)N21 [KKL-0312] | 2 |
| CCOC(=O)c1cnc(-n2nc(C)cc2C)nc1NC1CCCC1 [KKL-0899] | 4 |

| SMILES | % activation [%] |
| --- | --- |
| CC12CC3CC(C)(C1)CC(CNCc1ccccc1O)(C3)C2 [KKL-1484] | 3 |
| Cc1c(C(=O)Oc2cccc3cccnc23)oc2ccccc12 [KKL-1058] | 10 |
| COc1ccccc1N1CCN(c2nc(C)nc3c2oc2ccccc23)CC1 [KKL-0900] | 4 |
| CCOc1cc2c3c(c1)C1(C(=O)N3C(C)(C)C=C2C)C(C#N)=C(N)Oc2cc(O)ccc21 (stereo not drawn) [KKL-1341] | 0 |
| CC(=O)N1CC2(CCN(CC(=O)Nc3ccc(Cl)cc3)CC2)Nc2ccccc21 [KKL-1346] | 0 |
| Cc1cc2c(cc1NCc1cc3c(C)nn(-c4ccccc4)c3nc1O)OCCO2 [KKL-0349] | 0 |
| Cc1nc(-c2ccccc2Br)cc([C@H]2CN3CC[C@H]2C[C@@H]3CNC(=O)c2ccc(C(C)(C)C)cc2)n1 [KKL-1598] | 0 |
| CCOC(=O)Cc1csc(NC(=O)c2c(O)c3ccccc3n(CCC(C)C)c2=O)n1 [KKL-1615] | 75 |
| CC1=NN(c2nc3ccccc3s2)C(=O)C1Cc1cccc2ccccc12 (stereo not drawn) [KKL-0363] | 9 |
| O=c1oc2ccccc2n1C1CCN(Cc2nc3ccccc3n2Cc2ccccc2)CC1 [KKL-0441] | 2 |
| COc1ccc(-c2nc(NC(=O)c3cnc(SC)nc3)sc2C)cc1F [KKL-0923] | 0 |
| CC1CCN(c2ccc(NC(=O)c3ccc([N+](=O)[O-])o3)cc2)CC1 [KKL-1560] | 0 |
| CCOC(=O)COc1cc2oc(=O)cc(CC)c2cc1Cl [KKL-0855] | 0 |
| Clc1ccc(OCCCNCc2ccccc2)c2ccccc12 [KKL-0417] | 48 |
| CCn1c(/C=C/c2ccc([N+](=O)[O-])o2)nc2ccccc2c1=O [KKL-0972] | 2 |
| CN(Cc1nc(O)c2ccccc2n1)Cc1nc(O)c2sccc2n1 [KKL-0832] | 0 |
| CC(=O)Nc1cccc(C(=O)/C=C/c2ccc(Br)cc2)c1 [KKL-0980] | 0 |
| O=C(Cc1ccc(F)cc1)Nc1ccc(Cl)c(C(F)(F)F)c1 [KKL-0737] | 14 |
| CCOc1ccc(OCC(=O)Nc2cc(C)cc(C)c2)cc1 [KKL-1450] | 7 |
| c1ccc(-c2nc(NCc3ccco3)c3ccccc3n2)nc1 [KKL-0369] | 0 |
| CCCC(=O)N1CCN(c2ccc(NC(=O)c3ccc(-c4ccc(Cl)cc4)o3)cc2Cl)CC1 [KKL-1461] | 0 |

19 consecutive entries already listed, quoted:

| SMILES | % activation [%] |
| --- | --- |
| COC(=O)[C@@H]1Cc2c([nH]c3ccccc23)[C@H]2C[C@@H](N3CC[C@@H](O)C3)C[C@@H](c3ccc(C(F)(F)F)cc3)N21 [KKL-0312] | 2 |
| CCOC(=O)c1cnc(-n2nc(C)cc2C)nc1NC1CCCC1 [KKL-0899] | 4 |
| CC12CC3CC(C)(C1)CC(CNCc1ccccc1O)(C3)C2 [KKL-1484] | 3 |
| Cc1c(C(=O)Oc2cccc3cccnc23)oc2ccccc12 [KKL-1058] | 10 |
| COc1ccccc1N1CCN(c2nc(C)nc3c2oc2ccccc23)CC1 [KKL-0900] | 4 |
| CCOc1cc2c3c(c1)C1(C(=O)N3C(C)(C)C=C2C)C(C#N)=C(N)Oc2cc(O)ccc21 (stereo not drawn) [KKL-1341] | 0 |
| CC(=O)N1CC2(CCN(CC(=O)Nc3ccc(Cl)cc3)CC2)Nc2ccccc21 [KKL-1346] | 0 |
| Cc1cc2c(cc1NCc1cc3c(C)nn(-c4ccccc4)c3nc1O)OCCO2 [KKL-0349] | 0 |
| Cc1nc(-c2ccccc2Br)cc([C@H]2CN3CC[C@H]2C[C@@H]3CNC(=O)c2ccc(C(C)(C)C)cc2)n1 [KKL-1598] | 0 |
| CCOC(=O)Cc1csc(NC(=O)c2c(O)c3ccccc3n(CCC(C)C)c2=O)n1 [KKL-1615] | 75 |
| CC1=NN(c2nc3ccccc3s2)C(=O)C1Cc1cccc2ccccc12 (stereo not drawn) [KKL-0363] | 9 |
| O=c1oc2ccccc2n1C1CCN(Cc2nc3ccccc3n2Cc2ccccc2)CC1 [KKL-0441] | 2 |
| COc1ccc(-c2nc(NC(=O)c3cnc(SC)nc3)sc2C)cc1F [KKL-0923] | 0 |
| CC1CCN(c2ccc(NC(=O)c3ccc([N+](=O)[O-])o3)cc2)CC1 [KKL-1560] | 0 |
| CCOC(=O)COc1cc2oc(=O)cc(CC)c2cc1Cl [KKL-0855] | 0 |
| Clc1ccc(OCCCNCc2ccccc2)c2ccccc12 [KKL-0417] | 48 |
| CCn1c(/C=C/c2ccc([N+](=O)[O-])o2)nc2ccccc2c1=O [KKL-0972] | 2 |
| CN(Cc1nc(O)c2ccccc2n1)Cc1nc(O)c2sccc2n1 [KKL-0832] | 0 |
| CC(=O)Nc1cccc(C(=O)/C=C/c2ccc(Br)cc2)c1 [KKL-0980] | 0 |

More entries.

| SMILES | % activation [%] |
| --- | --- |
| COc1cccc(-c2ccccc2NC(=O)C2CCN(CCC(C)c3ccccc3)CC2)c1 (stereo not drawn) [KKL-1158] | 0 |
| Cc1occc1C(=O)Nc1nc(-c2ccccn2)nc2ccsc12 [KKL-1875] | 11 |
| COc1nc(SC)nc2sc3c(c12)CCC3 [KKL-0590] | 4 |
| CNc1nc(SC)nc2ccsc12 [KKL-1715] | 5 |
| O=C(c1ccc2oc(Cc3ccccc3)nc2c1)N1CCCCC1c1cccnc1 (stereo not drawn) [KKL-0637] | 4 |
| COc1ccc(NC(=O)CC23CC4CC(CC(C4)C2)C3)cc1[N+](=O)[O-] [KKL-0714] | 5 |
| COc1ccccc1CNCc1cc2c(C)nn(-c3ccc(F)cc3)c2nc1O [KKL-1035] | 8 |
| CC(C)c1ccc(OCC(=O)NNC(=S)NC(=O)c2ccco2)c(Br)c1 [KKL-0743] | 24 |
| Cc1nc2ccccn2c1C(=O)Nc1ccc(C(C)(C)C)cc1 [KKL-1770] | 0 |
| Cc1nnc(NC(=O)c2ccc3ccccc3c2)o1 [KKL-0946] | 0 |
| FC(F)(F)Oc1ccc(-c2cc3ccncc3cc2OC2CCNCC2)cc1 [KKL-1694] | 8 |
| Cn1cccc1CN1CCC2(CC1)CC1(CO2)Nc2cc(Cl)ccc2-n2cccc21 (stereo not drawn) [KKL-1233] | 1 |
| C1=C(CCNc2[nH]cnc3c4ccccc4nc2-3)CCCC1 [KKL-1027] | 0 |
| CCn1ccnc1CN(C)Cc1cn(-c2ccc(C)cc2)nc1-c1ccc(F)cc1 [KKL-0657] | 0 |
| O=C(NCc1ccc2c(c1)OCO2)c1cnn2c1NC(c1cccs1)CC2C(F)(F)F (stereo not drawn) [KKL-0568] | 0 |
| Cc1cc(Cl)ccc1NC(=O)CCc1ccc(S(=O)(=O)NC(C)C)cc1 [KKL-1581] | 0 |
| CCOc1ccccc1NC(=O)CSc1nc2ccc(NC(=O)c3ccccc3Cl)cc2s1 [KKL-1267] | 0 |
| CCn1c(/C=C/c2ccc([N+](=O)[O-])o2)nc2ccc(I)cc2c1=O [KKL-0295] | 0 |
| O=C(Nc1nc2c(s1)CCCc1cccnc1-2)c1ccccc1C(F)(F)F [KKL-1736] | 26 |
| O=C(C1CCN(c2nnc(-n3cccc3)s2)CC1)N1CCC(Cc2ccccc2)CC1 [KKL-1838] | 1 |
| O=C(Nc1nnc(-c2ccc(Cl)cc2)o1)c1cccc(C(F)(F)F)c1 [KKL-0209] | 24 |

| SMILES | % activation [%] |
| --- | --- |
| CC(=O)OCCNc1cc(SCc2ccco2)c2nonc2c1[N+](=O)[O-] [KKL-1152] | 0 |
| c1cc(N2CCN(c3nncc(-c4ccc(C5CCCCC5)cc4)n3)CC2)ccn1 [KKL-0322] | 0 |
| COc1cccc(C(=O)Oc2ccccc2/C=C/C(=O)c2cc3ccccc3o2)c1 [KKL-0944] | 0 |
| CCn1c(=O)c(=O)[nH]c2cc(C(=O)Nc3ccccc3Nc3ccc(OC)cc3)ccc21 [KKL-1691] | 2 |
| O=C(Nc1ccc(-n2cccn2)cc1)C1CCCCN1Cc1cccc2nonc12 (stereo not drawn) [KKL-0477] | 1 |
| C(=C\c1nc(N2CCCC2)c2ccccc2n1)/c1ccccc1 [KKL-1269] | 0 |
| COc1ccc(OCc2n(CC(=O)OC3CC(C)CCC3C(C)C)c3ccccc3[n+]2C)cc1 (stereo not drawn) [KKL-1510] | 0 |
| O=C(Oc1cccc2cccnc12)c1ccccc1Br [KKL-1385] | 0 |
| O=C(c1cc(COc2ccc3c(c2)CCCC3)on1)N1CCCCO1 [KKL-1184] | 0 |
| Cc1ccc(-c2c[n+](CC(=O)Nc3nc(-c4ccc(F)cc4)cs3)c3n2CCC3)cc1 [KKL-0377] | 21 |
| COC(=O)COc1cccc(NC(=O)c2cccc(C)c2)c1 [KKL-1491] | 1 |
| CC(=O)NC(=S)NNC(=O)c1ccc(C)c(Br)c1 [KKL-0065] | 186 |
| CC1=C2C(=O)CCCC2=NC1C(=O)NCCOc1ccccc1 (stereo not drawn) [KKL-1733] | 0 |
| c1ccc(CCNc2nc3ccccc3[nH]2)cc1 [KKL-1103] | 0 |
| CCOc1cc(CNCCO)cc(Br)c1OCc1ccc(Cl)cc1Cl [KKL-1565] | 0 |
| Cc1cc(C(=O)NCC23CC4CC(CC(C4)C2)C3)ccc1[N+](=O)[O-] [KKL-1425] | 0 |
| c1csc(Cc2nn3c(-c4n[nH]c5c4CCC5)nnc3s2)c1 [KKL-1674] | 0 |
| CCOc1cc(CNC(C)C23CC4CC(CC(C4)C2)C3)cc(Cl)c1OCC(=O)NC(C)(C)C (stereo not drawn) [KKL-1582] | 0 |
| O=C(Cn1nc2c(cc1=O)CCc1nc(N3CCCCC3)ncc1-2)OC1CCCCC1 [KKL-0682] | 0 |
| O=C(NC1=NCCS1)c1sc2cc(F)ccc2c1Cl [KKL-1703] | 0 |
| CCOC(=O)c1ccc(NC(S)=Nc2ccc(F)c(Cl)c2)cc1 [KKL-1537] | 0 |
